Reference: article PMC8597092
No constants are given. Whether binding was seen depends on the method and setting. Binding seen in cells or lysates may run through a third protein. Some results given as binding are weak or reduced against the parent protein; the word gives no strength.

The chains behind the UniProt entries cited, without tags or fusion partners.
UniProt Q05397: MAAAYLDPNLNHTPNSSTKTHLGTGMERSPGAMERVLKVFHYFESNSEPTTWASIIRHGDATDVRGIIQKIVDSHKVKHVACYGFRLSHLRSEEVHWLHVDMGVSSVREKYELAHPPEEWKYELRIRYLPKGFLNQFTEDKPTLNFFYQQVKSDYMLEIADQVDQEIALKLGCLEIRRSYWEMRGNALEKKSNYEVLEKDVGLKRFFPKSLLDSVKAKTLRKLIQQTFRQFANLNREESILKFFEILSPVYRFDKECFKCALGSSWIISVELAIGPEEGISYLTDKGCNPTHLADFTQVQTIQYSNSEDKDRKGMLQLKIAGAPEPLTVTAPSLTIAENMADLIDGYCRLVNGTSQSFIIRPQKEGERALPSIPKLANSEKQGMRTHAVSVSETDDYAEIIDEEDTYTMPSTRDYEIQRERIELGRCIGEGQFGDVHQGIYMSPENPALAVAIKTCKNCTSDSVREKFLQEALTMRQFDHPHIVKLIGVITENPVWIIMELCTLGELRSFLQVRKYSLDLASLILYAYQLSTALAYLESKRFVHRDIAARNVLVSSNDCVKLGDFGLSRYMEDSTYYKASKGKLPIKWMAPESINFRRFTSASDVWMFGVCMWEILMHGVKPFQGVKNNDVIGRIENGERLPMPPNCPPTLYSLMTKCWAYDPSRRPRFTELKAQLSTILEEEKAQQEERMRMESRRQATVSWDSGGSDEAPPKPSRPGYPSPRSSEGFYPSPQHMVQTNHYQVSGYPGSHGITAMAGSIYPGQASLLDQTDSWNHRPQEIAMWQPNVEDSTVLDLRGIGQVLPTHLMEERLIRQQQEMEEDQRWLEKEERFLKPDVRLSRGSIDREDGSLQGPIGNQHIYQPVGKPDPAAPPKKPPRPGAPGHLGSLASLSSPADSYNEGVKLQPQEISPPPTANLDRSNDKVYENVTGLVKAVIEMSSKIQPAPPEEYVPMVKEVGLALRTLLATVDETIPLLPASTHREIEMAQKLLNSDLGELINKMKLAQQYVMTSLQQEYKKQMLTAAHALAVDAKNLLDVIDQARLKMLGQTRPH
UniProt Q13547: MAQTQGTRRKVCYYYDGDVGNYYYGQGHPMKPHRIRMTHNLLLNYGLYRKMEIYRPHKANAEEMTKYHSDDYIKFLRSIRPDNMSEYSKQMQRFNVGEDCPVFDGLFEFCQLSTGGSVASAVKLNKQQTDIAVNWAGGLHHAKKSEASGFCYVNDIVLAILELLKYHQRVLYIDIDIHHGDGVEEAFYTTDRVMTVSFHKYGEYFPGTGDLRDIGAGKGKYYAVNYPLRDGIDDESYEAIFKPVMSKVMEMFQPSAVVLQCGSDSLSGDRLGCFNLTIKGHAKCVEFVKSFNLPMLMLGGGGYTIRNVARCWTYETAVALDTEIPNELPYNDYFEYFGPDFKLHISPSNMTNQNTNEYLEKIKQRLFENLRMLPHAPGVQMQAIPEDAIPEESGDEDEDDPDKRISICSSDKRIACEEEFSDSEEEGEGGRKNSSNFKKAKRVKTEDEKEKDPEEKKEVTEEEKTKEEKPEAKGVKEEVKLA
UniProt Q92769: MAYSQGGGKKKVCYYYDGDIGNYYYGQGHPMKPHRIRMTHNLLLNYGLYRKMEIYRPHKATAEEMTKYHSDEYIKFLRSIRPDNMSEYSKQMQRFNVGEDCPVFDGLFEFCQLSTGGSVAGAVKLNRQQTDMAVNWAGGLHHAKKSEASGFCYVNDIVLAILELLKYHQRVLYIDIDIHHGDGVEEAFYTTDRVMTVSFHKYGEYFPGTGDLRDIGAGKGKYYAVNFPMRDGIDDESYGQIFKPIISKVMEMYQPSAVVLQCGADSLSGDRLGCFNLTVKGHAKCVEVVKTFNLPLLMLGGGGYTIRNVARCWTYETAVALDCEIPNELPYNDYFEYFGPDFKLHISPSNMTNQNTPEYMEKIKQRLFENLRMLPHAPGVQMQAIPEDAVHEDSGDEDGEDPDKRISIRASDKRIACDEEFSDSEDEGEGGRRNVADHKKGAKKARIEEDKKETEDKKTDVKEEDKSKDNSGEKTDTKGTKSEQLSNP

What was measured:
[1] = target: focal adhesion kinase (FAK) (human (endogenous in HepG2 and Huh7)) (UniProt Q05397); experiment: co-IP; 500 μg nuclear extract of HepG2 and Huh7 cells, antibody against FAK on protein A/G PLUS-Agarose beads, 2 h at 4 °C, washed with TBS; blotted for FAK or pTyr397FAK, HDAC1 and HDAC2; non-treated cells; Mock: beads alone; cells silenced for FAK as a further sample
[2] = target: focal adhesion kinase (FAK) (human (endogenous in HepG2 and Huh7)) (UniProt Q05397); experiment: co-IP; as a2, nuclear extracts of HepG2 and Huh7 cells treated with TAE226 > SOR (TAE226 followed by Sorafenib)

| Substance | binding [1] | binding [2] |
| --- | --- | --- |
| HDAC1 (from UniProt Q13547 1-482) | binds | no binding (condition: cells treated with TAE226 > SOR) |
| HDAC2 (from UniProt Q92769 1-488) | binds | no binding (condition: cells treated with TAE226 > SOR) |
